Measured values published in PMC10044876.
No constants are given. Whether binding was seen depends on the method and setting. Binding calls can cover weak binding; strength is not graded here. Tags and fused reporters may be left off the sequences shown.

Molecular target: T1, His-tagged TrxC (thioredoxin-2) (Rhodobacter capsulatus) (UniProt D5AMH1)
T1 sequence: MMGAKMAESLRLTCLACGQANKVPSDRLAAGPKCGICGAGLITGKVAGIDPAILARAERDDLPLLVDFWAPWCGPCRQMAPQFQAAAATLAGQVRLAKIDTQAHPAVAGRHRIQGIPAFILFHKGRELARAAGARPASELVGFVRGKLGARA
Test: pull-down; His-tagged TrxC bound to Ni-NTA agarose, mixed with SqrR-FLAG (protein 5 uM), 3 h at 4 °C; 20 mM Tris-HCl pH 8.0, 500 mM NaCl, 20 mM imidazole, 10% glycerol; washed with 20 column volumes, eluted with 500 mM imidazole; eluates analysed by Western blot with anti-FLAG antibody; both purified

binding: binds
Substance: Recombinant FLAG-tagged SqrR (Rhodobacter capsulatus)
